Read-outs that look alike come from different tables or passages of the source. No constants are given. Whether binding was seen depends on the method and setting. Binding seen in cells or lysates may run through a third protein. Some binding calls cover weakened binding; strength is not graded here. For some of these results: Tags and fused reporters may be left off the sequences shown. Blank lines part the entries; values can stand above or below the molecule they belong to.
Assays:
[1] = target: GFP–RCC2 (UniProt Q9P258); assay: co-IP; GFP-tagged protein or GFP precipitated by GFP-Trap from transfected HEK-293T lysates; co-precipitated endogenous proteins by western blot
[2] = target: endogenous RCC2 (fibroblasts or cells not named) (not stated (endogenous in fibroblasts; MEFs and human fibroblasts were cultured)) (UniProt Q8BK67); assay: co-IP; endogenous proteins co-immunoprecipitated from fibroblasts
[3] = target: GFP–Coro1C (UniProt Q9ULV4); assay: co-IP; GFP-tagged protein or GFP precipitated by GFP-Trap from transfected HEK-293T lysates; co-precipitated endogenous proteins by western blot
[4] = target: GFP–RCC2 (UniProt Q9P258); assay: as above; remark: listed apart in the source

The chains behind the UniProt entries cited, without tags or fusion partners.
UniProt Q8BK67: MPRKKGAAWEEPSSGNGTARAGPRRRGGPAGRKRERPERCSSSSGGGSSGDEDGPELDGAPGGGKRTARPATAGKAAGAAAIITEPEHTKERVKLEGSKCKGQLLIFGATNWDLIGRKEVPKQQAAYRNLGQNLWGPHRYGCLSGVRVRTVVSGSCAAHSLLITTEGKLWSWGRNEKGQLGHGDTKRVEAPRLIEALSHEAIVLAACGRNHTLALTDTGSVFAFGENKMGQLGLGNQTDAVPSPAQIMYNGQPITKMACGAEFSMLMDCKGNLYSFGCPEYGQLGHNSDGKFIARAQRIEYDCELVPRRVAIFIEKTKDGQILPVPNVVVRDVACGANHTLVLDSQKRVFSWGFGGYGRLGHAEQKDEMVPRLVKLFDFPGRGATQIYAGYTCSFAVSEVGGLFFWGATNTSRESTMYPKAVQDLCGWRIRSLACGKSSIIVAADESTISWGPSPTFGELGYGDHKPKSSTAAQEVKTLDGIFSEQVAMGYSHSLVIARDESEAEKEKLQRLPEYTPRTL

- binding [1]: binds
Molecule: endogenous Coro1C (293T) (from UniProt Q9ULV4 1-474)

- binding [2]: binds
Molecule: endogenous Coro1C (fibroblasts or cells not named) (from UniProt Q9WUM4 1-474)

- binding [3]: binds
Molecule: endogenous RCC2 (293T) (from UniProt Q9P258 1-522)

- binding [4]: no binding
B1: endogenous RhoGDI (cells expressing GFP–RCC2) (protein, UniProt P52565 1-204)
chain: MAEQEPTAEQLAQIAAENEEDEHSVNYKPPAQKSIQEIQELDKDDESLRKYKEALLGRVAVSADPNVPNVVVTGLTLVCSSAPGPLELDLTGDLESFKKQSFVLKEGVEYRIKISFRVNREIVSGMKYIQHTYRKGVKIDKTDYMVGSYGPRAEEYEFLTPVEEAPKGMLARGSYSIKSRFTDDDKTDHLSWEWNLTIKKDWKD

Reference: PMC4179493
